Taken from: PubChem BioAssay AID1259405 (NCATS, 2018)
Here is one part, drawn at random, of about 50,000 deposited reagents. About 4,000 of them (8%) count as active. 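Mouse siRNA library applied to hamster cells; one well for each siRNA.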 Entries without a mark were called inactive. Reagents against one gene are numbered here. Reagent sequences are not shown.

Purpose: 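Silenced genes that increase secreted GFP made by CHO cells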 (primary screen)
Cells: Chinese hamster CHO-K1 ovary cells with stable secreted eGFP expression
Knock-down reagent: single siRNA against mouse genes, 0.8 pmol siRNA per well (2 µl of 400 nM stock)
Time to read-out: 3 days
Measurement: 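Percent of the per-plate non-targeting control median for intracellular GFP per well by laser scanning cytometry and for cell viability by ATP luminescence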
Direction: GFP, % of control: higher = more GFP per well, higher productivity; viability (ATP), % of control: higher = more viable cells (more ATP)
Active means: 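Called active when intracellular GFP, relative to negative control, is at or above 120%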

For Vopp1 #1, the values are GFP, % of control 61.6; viability (ATP), % of control 62.3. Knock-down of Vopp1 #2 gave: GFP, % of control 65.5; viability (ATP), % of control 77.9. Vopp1 #3 scored GFP, % of control 103; viability (ATP), % of control 91.1. With knock-down of Rfx2 #1 the results were GFP, % of control 93; viability (ATP), % of control 107. For Rfx2 #2 the deposit lists GFP, % of control 141 (active); viability (ATP), % of control 68.4. Against Rfx2 #3, the entry reads GFP, % of control 77.6; viability (ATP), % of control 101.

For Celf3 #1 the deposit lists GFP, % of control 122 (active); viability (ATP), % of control 111. For Celf3 #2, the entry reads GFP, % of control 91.6; viability (ATP), % of control 99.2. Knock-down of Or52ac1 #1 came out at: GFP, % of control 103; viability (ATP), % of control 36.2. Knock-down of Or52ac1 #2 came out at: GFP, % of control 44.4; viability (ATP), % of control 57. For Or52ac1 #3, the entry reads GFP, % of control 34.6; viability (ATP), % of control 49.5. For LOC547349 #1 the deposit lists GFP, % of control 68; viability (ATP), % of control 101.

LOC547349 #2 scored GFP, % of control 67.4; viability (ATP), % of control 74.4. Knock-down of LOC547349 #3 came out at: GFP, % of control 49.2; viability (ATP), % of control 32.8. After knock-down of Irgq #1 the results were GFP, % of control 85.9; viability (ATP), % of control 49.5. Against Irgq #2 the deposit lists GFP, % of control 42.4; viability (ATP), % of control 56.1. Knock-down of Irgq #3 came out at: GFP, % of control 96.1; viability (ATP), % of control 83.5.

Reprinted from the listing, 7 entries:
Or52ac1 #1 → GFP, % of control = 103; viability (ATP), % of control = 36.2
Or52ac1 #2 → GFP, % of control = 44.4; viability (ATP), % of control = 57
Or52ac1 #3 → GFP, % of control = 34.6; viability (ATP), % of control = 49.5
LOC547349 #1 → GFP, % of control = 68; viability (ATP), % of control = 101
LOC547349 #2 → GFP, % of control = 67.4; viability (ATP), % of control = 74.4
LOC547349 #3 → GFP, % of control = 49.2; viability (ATP), % of control = 32.8
Irgq #1 → GFP, % of control = 85.9; viability (ATP), % of control = 49.5

Further records follow.
With knock-down of Csde1 #1, the record shows GFP, % of control 60.6; viability (ATP), % of control 79.9. After knock-down of Csde1 #2, the screen gave GFP, % of control 71.9; viability (ATP), % of control 75.6. With knock-down of Csde1 #3, the screen gave GFP, % of control 60.5; viability (ATP), % of control 77.9. For Samd7 #1, the values are GFP, % of control 29.1; viability (ATP), % of control 62.6. With knock-down of Samd7 #2, the screen gave GFP, % of control 93; viability (ATP), % of control 56.8. Against Morc1 #1, the values are GFP, % of control 102; viability (ATP), % of control 113.

Against Morc1 #2 the deposit lists GFP, % of control 86.4; viability (ATP), % of control 72.1. For Emc10 #1, the entry reads GFP, % of control 66.9; viability (ATP), % of control 65.8. After knock-down of Emc10 #2, the record shows GFP, % of control 45.3; viability (ATP), % of control 45.7. Emc10 #3 gave GFP, % of control 98.7; viability (ATP), % of control 84.4. Knock-down of Wwp2 #1 gave: GFP, % of control 82.2; viability (ATP), % of control 62.1. With knock-down of Wwp2 #2, the record shows GFP, % of control 105; viability (ATP), % of control 80.5.

Wwp2 #3 scored GFP, % of control 164 (active); viability (ATP), % of control 118. Hspb6 #1 showed GFP, % of control 81.1; viability (ATP), % of control 91.7. After knock-down of Hspb6 #2, the record shows GFP, % of control 97.2; viability (ATP), % of control 79.6. After knock-down of Hspb6 #3, the screen gave GFP, % of control 30.7; viability (ATP), % of control 30.6. After knock-down of Tasor2 #1 the results were GFP, % of control 39.6; viability (ATP), % of control 66. Against Tasor2 #2, the values are GFP, % of control 89.1; viability (ATP), % of control 102.

With knock-down of Tasor2 #3, the record shows GFP, % of control 92.3; viability (ATP), % of control 136. For Pex5 #1 the deposit lists GFP, % of control 67.7; viability (ATP), % of control 87. Pex5 #2 scored GFP, % of control 71.8; viability (ATP), % of control 74. Pgd #1 gave GFP, % of control 97.1; viability (ATP), % of control 83.4. Pgd #2 gave GFP, % of control 96.1; viability (ATP), % of control 71.8. After knock-down of Pgd #3 the results were GFP, % of control 88; viability (ATP), % of control 63.9.

Against Map3k20 the deposit lists GFP, % of control 88.1; viability (ATP), % of control 81.6. Depletion of Fmo2 #1 came out at: GFP, % of control 138 (active); viability (ATP), % of control 94.1. Fmo2 #2 gave GFP, % of control 89; viability (ATP), % of control 100. With knock-down of Fmo2 #3, the record shows GFP, % of control 91.2; viability (ATP), % of control 87. Against Snapc1 #1, the values are GFP, % of control 86.9; viability (ATP), % of control 74.8. Snapc1 #2 scored GFP, % of control 60.7; viability (ATP), % of control 65.6.

Knock-down of Snapc1 #3 resulted in: GFP, % of control 72.8; viability (ATP), % of control 66.2. Knock-down of Ca12 #1 resulted in: GFP, % of control 137 (active); viability (ATP), % of control 129. Silencing of Ca12 #2 gave: GFP, % of control 72.7; viability (ATP), % of control 74.2. Als2 #1 gave GFP, % of control 79.4; viability (ATP), % of control 89.5. With knock-down of Als2 #2, the screen gave GFP, % of control 76.8; viability (ATP), % of control 105. Silencing of Als2 #3 gave: GFP, % of control 54.4; viability (ATP), % of control 78.6.
